Results reported in patent publication US8877819B2, “Methods for treating heat stress and related compositions” (Georgetown University, priority 2008, dated 2014).

Assay: Body weight (BW)
Assay type: in vivo, Zucker Fatty Rats
Conditions: Experiment 1; for BW vs control over the initial 33 days: differences not statistically significant; for Change in body weight after heat stress: survivors, 12 days after heat stress
[1] = Hi Asta, astaxanthin 25 mg/kg in feed
[2] = Lo Asta, astaxanthin 5 mg/kg in feed

Row | SMILES | BW vs control over the initial 33 days (captopril 30 mg/kg in feed) | Change in body weight after heat stress (captopril 30 mg/kg in feed) [g] | BW vs control over the initial 33 days [1] | BW vs control over the initial 33 days [2] | Change in body weight after heat stress [1] [g] | Change in body weight after heat stress [2] [g]
1 | C[C@H](CS)C(=O)N1CCC[C@H]1C(=O)O [Captopril, reference compound] | increased slightly over control | 37.0 ± 18.4 | – | – | – | –
2 | CC1=C(/C=C/C(C)=C/C=C/C(C)=C/C=C/C=C(C)/C=C/C=C(C)/C=C/C2=C(C)C(=O)[C@@H](O)CC2(C)C)C(C)(C)C[C@H](O)C1=O [Asta, astaxanthin] | – | – | increased slightly over control | increased slightly over control | 24.3 ± 6.8 | 14.5 ± 13.2
